Source: publication PMC6166134
These are yes or no findings as the source states them, for the method shown. In cells and extracts the contact can be indirect. These calls come from enrichment with a bait or labelling near it, and not all partners need be listed.

The chains behind the UniProt entries cited, without tags or fusion partners.
UniProt Q9NVP2: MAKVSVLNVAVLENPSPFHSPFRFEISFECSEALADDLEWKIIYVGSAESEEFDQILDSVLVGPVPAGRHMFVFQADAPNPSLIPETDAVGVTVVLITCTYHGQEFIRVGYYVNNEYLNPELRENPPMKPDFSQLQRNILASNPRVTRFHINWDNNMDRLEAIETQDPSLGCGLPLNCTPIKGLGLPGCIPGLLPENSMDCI
UniProt O14929: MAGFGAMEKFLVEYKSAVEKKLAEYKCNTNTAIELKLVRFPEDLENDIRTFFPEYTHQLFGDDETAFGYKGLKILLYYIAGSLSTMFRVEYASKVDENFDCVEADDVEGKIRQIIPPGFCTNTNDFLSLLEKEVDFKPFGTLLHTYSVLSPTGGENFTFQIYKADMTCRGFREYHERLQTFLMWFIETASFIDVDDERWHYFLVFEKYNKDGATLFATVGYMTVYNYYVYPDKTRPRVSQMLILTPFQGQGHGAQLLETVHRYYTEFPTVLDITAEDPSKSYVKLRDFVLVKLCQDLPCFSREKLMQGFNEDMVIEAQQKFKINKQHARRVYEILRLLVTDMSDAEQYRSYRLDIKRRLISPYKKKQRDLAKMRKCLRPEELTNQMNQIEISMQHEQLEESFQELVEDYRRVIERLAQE
UniProt Q9UBN7: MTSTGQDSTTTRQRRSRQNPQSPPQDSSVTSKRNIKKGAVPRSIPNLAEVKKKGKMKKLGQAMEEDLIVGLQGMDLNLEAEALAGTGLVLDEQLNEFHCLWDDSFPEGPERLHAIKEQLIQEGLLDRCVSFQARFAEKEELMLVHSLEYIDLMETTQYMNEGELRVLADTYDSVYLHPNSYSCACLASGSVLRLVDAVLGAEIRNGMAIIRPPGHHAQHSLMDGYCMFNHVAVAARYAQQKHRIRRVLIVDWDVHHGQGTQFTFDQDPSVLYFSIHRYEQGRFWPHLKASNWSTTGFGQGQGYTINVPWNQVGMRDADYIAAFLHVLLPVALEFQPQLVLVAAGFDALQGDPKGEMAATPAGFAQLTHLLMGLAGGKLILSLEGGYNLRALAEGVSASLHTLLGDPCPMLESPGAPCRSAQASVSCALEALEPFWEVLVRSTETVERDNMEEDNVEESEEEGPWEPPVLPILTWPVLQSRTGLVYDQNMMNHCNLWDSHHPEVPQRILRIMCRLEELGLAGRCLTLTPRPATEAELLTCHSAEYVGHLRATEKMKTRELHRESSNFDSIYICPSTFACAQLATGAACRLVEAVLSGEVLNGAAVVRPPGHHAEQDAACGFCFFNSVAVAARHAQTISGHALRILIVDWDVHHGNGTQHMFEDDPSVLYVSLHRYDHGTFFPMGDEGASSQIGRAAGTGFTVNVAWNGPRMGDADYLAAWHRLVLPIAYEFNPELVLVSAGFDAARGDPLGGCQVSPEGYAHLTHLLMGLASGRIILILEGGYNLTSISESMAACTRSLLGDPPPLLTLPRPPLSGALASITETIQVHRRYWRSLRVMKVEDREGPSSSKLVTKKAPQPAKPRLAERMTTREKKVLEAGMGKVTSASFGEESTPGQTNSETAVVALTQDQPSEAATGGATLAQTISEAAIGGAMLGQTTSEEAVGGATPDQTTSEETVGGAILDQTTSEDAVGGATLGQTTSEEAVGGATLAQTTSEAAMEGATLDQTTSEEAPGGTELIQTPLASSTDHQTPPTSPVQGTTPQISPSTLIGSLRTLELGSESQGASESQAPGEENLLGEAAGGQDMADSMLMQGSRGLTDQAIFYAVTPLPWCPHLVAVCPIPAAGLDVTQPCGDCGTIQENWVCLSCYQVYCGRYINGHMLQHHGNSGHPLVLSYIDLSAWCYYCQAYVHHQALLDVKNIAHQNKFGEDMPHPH
UniProt P54198: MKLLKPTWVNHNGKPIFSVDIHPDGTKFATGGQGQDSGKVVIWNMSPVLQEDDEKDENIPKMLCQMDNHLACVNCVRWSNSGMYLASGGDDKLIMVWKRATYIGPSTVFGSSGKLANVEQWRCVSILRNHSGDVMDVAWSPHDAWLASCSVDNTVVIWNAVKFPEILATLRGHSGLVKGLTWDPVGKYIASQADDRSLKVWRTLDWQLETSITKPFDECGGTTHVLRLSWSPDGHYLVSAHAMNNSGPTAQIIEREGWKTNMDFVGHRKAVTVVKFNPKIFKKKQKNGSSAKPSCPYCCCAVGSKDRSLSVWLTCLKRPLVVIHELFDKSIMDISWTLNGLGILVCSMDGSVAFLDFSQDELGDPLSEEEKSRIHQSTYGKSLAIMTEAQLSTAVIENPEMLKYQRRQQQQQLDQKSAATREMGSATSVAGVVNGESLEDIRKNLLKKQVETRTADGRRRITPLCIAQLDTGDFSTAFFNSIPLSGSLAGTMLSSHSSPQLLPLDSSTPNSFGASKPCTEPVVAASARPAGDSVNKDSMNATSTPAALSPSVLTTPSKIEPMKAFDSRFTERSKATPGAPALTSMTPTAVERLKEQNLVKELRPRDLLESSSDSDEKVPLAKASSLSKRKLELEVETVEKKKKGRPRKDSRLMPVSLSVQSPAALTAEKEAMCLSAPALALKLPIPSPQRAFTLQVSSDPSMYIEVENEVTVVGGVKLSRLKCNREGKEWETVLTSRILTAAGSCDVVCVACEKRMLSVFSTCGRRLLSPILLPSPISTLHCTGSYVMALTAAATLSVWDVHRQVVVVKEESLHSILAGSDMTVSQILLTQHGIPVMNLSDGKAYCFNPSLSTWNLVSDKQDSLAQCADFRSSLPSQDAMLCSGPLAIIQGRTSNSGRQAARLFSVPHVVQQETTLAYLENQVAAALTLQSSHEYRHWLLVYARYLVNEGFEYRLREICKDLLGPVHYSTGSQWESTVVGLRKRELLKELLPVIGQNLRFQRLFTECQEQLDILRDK
UniProt Q14974: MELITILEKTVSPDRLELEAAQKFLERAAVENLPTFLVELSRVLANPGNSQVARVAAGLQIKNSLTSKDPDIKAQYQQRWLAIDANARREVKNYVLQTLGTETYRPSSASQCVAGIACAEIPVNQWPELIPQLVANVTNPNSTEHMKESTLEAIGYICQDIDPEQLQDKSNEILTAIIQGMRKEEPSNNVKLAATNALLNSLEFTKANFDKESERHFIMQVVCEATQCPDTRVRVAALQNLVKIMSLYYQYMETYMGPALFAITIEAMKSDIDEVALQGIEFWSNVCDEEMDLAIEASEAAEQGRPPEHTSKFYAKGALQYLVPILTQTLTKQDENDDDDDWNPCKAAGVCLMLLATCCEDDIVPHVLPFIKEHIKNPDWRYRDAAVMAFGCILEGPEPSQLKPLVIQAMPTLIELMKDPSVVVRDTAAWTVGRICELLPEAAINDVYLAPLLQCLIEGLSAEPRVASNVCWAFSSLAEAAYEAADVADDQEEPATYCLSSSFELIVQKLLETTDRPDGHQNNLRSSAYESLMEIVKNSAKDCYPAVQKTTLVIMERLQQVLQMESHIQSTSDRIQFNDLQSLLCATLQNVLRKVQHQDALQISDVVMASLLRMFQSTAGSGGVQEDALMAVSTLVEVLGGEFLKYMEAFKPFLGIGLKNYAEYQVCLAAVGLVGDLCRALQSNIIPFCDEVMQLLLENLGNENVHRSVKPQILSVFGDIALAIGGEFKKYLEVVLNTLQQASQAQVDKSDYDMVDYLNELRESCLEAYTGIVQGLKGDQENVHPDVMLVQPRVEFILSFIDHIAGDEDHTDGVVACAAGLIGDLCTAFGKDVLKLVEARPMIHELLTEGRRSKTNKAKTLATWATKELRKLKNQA
UniProt Q9UKI8: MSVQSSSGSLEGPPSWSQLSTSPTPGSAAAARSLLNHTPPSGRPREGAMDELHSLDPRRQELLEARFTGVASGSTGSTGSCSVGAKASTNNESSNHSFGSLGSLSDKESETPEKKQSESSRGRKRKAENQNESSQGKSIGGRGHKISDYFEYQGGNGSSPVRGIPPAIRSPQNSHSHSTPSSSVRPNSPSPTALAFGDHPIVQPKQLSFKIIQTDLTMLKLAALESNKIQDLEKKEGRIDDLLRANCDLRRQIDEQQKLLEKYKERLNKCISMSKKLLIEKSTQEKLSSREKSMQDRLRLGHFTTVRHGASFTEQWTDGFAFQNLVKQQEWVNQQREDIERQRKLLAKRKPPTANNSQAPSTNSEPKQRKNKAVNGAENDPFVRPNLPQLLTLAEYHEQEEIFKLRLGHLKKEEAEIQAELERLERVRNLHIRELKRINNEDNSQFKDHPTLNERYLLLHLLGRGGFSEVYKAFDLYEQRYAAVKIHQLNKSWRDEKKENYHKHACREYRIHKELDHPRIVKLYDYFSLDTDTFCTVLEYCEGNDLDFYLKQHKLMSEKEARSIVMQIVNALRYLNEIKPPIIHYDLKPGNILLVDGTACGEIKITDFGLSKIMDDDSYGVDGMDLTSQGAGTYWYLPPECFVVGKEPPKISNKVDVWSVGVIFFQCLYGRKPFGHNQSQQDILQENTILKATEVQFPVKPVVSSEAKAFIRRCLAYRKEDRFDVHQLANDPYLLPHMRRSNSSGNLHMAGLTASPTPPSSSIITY
UniProt Q86UE8: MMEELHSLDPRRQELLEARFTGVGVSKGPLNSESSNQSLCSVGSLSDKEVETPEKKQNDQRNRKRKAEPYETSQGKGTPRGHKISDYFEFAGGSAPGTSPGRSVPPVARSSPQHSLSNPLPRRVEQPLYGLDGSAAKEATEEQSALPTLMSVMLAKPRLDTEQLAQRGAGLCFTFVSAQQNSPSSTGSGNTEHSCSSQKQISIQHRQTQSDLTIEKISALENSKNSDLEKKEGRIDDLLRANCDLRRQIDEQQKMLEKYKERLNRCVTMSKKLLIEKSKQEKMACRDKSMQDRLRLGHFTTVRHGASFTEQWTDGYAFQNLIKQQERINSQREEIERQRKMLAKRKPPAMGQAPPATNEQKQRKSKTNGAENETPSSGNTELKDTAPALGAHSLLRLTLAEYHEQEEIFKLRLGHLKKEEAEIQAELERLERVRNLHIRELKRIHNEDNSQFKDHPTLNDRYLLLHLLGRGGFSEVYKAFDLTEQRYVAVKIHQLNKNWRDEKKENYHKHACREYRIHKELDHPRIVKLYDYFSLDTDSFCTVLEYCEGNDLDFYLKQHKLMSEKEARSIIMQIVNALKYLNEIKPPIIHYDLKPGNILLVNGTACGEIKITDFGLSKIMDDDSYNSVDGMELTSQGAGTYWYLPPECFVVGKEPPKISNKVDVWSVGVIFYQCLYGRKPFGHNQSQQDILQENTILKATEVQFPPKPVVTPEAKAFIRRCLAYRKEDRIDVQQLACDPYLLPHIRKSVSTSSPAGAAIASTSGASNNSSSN

Tests used:
Test in all cases: affinity purification with mass spectrometry; GFP-Trap immunoprecipitates of stable HeLa lines, in-gel digested, nanoLC-ESI-MS/MS, label-free quantification; three biological replicates
[1] = target: EGFP-sNASP (UniProt P49321)
[2] = target: EGFP-ASF1b (UniProt Q9NVP2)
[3] = target: EGFP-HAT1 (UniProt O14929)
[4] = target: EGFP-sNASP, P49321; conditions: remark: other sources report otherwise

Row | binding [1] | binding [2] | binding [3] | binding [4] | Molecule
1 | binds |  |  |  | EGFP-ASF1b (from UniProt Q9NVP2 1-202)
2 | binds | binds |  |  | EGFP-HAT1 (from UniProt O14929 1-419)
3 | binds | binds | binds |  | HDAC6 (endogenous) (from UniProt Q9UBN7 1-1215)
4 |  | binds |  |  | HIRA (endogenous) (from UniProt P54198 1-1017)
5 | binds | binds | binds |  | KPNB1 (endogenous) (from UniProt Q14974 1-876)
6 |  | binds |  |  | TLK1 (endogenous) (from UniProt Q9UKI8 1-766)
7 |  | binds |  |  | TLK2 (endogenous) (from UniProt Q86UE8 1-772)
8 |  | binds |  |  | tNASP (endogenous) (from UniProt P49321-1 1-788)
9 |  |  |  | binds | IPO4 (endogenous), Q8TEX9 1-1081 (protein) MESAGLEQLLRELLLPDTERIRRATEQLQIVLRAPAALPALCDLLASAADPQIRQFAAVLTRRRLNTRWRRLAAEQRESLKSLILTALQRETEHCVSLSLAQLSATIFRKEGLEAWPQLLQLLQHSTHSPHSPEREMGLLLLSVVVTSRPEAFQPHHRELLRLLNETLGEVGSPGLLFYSLRTLTTMAPYLSTEDVPLARMLVPKLIMAMQTLIPIDEAKACEALEALDELLESEVPVITPYLSEVLTFCLEVARNVALGNAIRIRILCCLTFLVKVKSKALLKNRLLPPLLHTLFPIVAAEPPPGQLDPEDQDSEEEELEIELMGETPKHFAVQVVDMLALHLPPEKLCPQLMPMLEEALRSESPYQRKAGLLVLAVLSDGAGDHIRQRLLPPLLQIVCKGLEDPSQVVRNAALFALGQFSENLQPHISSYSREVMPLLLAYLKSVPLGHTHHLAKACYALENFVENLGPKVQPYLPELMECMLQLLRNPSSPRAKELAVSALGAIATAAQASLLPYFPAIMEHLREFLLTGREDLQPVQIQSLETLGVLARAVGEPMRPLAEECCQLGLGLCDQVDDPDLRRCTYSLFAALSGLMGEGLAPHLEQITTLMLLSLRSTEGIVPQYDGSSSFLLFDDESDGEEEEELMDEDVEEEDDSEISGYSVENAFFDEKEDTCAAVGEISVNTSVAFLPYMESVFEEVFKLLECPHLNVRKAAHEALGQFCCALHKACQSCPSEPNTAALQAALARVVPSYMQAVNRERERQVVMAVLEALTGVLRSCGTLTLKPPGRLAELCGVLKAVLQRKTACQDTDEEEEEEDDDQAEYDAMLLEHAGEAIPALAAAAGGDSFAPFFAGFLPLLVCKTKQGCTVAEKSFAVGTLAETIQGLGAASAQFVSRLLPVLLSTAQEADPEVRSNAIFGMGVLAEHGGHPAQEHFPKLLGLLFPLLARERHDRVRDNICGALARLLMASPTRKPEPQVLAALLHALPLKEDLEEWVTIGRLFSFLYQSSPDQVIDVAPELLRICSLILADNKIPPDTKAALLLLLTFLAKQHTDSFQAALGSLPVDKAQELQAVLGLS
10 |  | binds |  |  | TONSL (endogenous) (protein, UniProt Q96HA7 1-1378) MSLERELRQLSKAKAKAQRAGQRREEAALCHQLGELLAGHGRYAEALEQHWQELQLRERADDPLGCAVAHRKIGERLAEMEDYPAALQHQHQYLELAHSLRNHTELQRAWATIGRTHLDIYDHCQSRDALLQAQAAFEKSLAIVDEELEGTLAQGELNEMRTRLYLNLGLTFESLQQTALCNDYFRKSIFLAEQNHLYEDLFRARYNLGTIHWRAGQHSQAMRCLEGARECAHTMRKRFMESECCVVIAQVLQDLGDFLAAKRALKKAYRLGSQKPVQRAAICQNLQHVLAVVRLQQQLEEAEGRDPQGAMVICEQLGDLFSKAGDFPRAAEAYQKQLRFAELLDRPGAERAIIHVSLATTLGDMKDHHGAVRHYEEELRLRSGNVLEEAKTWLNIALSREEAGDAYELLAPCFQKALSCAQQAQRPQLQRQVLQHLHTVQLRLQPQEAPETETRLRELSVAEDEDEEEEAEEAAATAESEALEAGEVELSEGEDDTDGLTPQLEEDEELQGHLGRRKGSKWNRRNDMGETLLHRACIEGQLRRVQDLVRQGHPLNPRDYCGWTPLHEACNYGHLEIVRFLLDHGAAVDDPGGQGCEGITPLHDALNCGHFEVAELLLERGASVTLRTRKGLSPLETLQQWVKLYRRDLDLETRQKARAMEMLLQAAASGQDPHSSQAFHTPSSLLFDPETSPPLSPCPEPPSNSTRLPEASQAHVRVSPGQAAPAMARPRRSRHGPASSSSSSEGEDSAGPARPSQKRPRCSATAQRVAAWTPGPASNREAATASTSRAAYQAAIRGVGSAQSRLGPGPPRGHSKALAPQAALIPEEECLAGDWLELDMPLTRSRRPRPRGTGDNRRPSSTSGSDSEESRPRARAKQVRLTCMQSCSAPVNAGPSSLASEPPGSPSTPRVSEPSGDSSAAGQPLGPAPPPPIRVRVQVQDHLFLIPVPHSSDTHSVAWLAEQAAQRYYQTCGLLPRLTLRKEGALLAPQDLIPDVLQSNDEVLAEVTSWDLPPLTDRYRRACQSLGQGEHQQVLQAVELQGLGLSFSACSLALDQAQLTPLLRALKLHTALRELRLAGNRLGDKCVAELVAALGTMPSLALLDLSSNHLGPEGLRQLAMGLPGQATLQSLEELDLSMNPLGDGCGQSLASLLHACPLLSTLRLQACGFGPSFFLSHQTALGSAFQDAEHLKTLSLSYNALGAPALARTLQSLPAGTLLHLELSSVAAGKGDSDLMEPVFRYLAKEGCALAHLTLSANHLGDKAVRDLCRCLSLCPSLISLDLSANPEISCASLEELLSTLQKRPQGLSFLGLSGCAVQGPLGLGLWDKIAAQLRELQLCSRRLCAEDRDALRQLQPSRPGPGECTLDHGSKLFFRRL
11 |  | binds |  |  | CDAN1 (endogenous) (protein, UniProt Q8IWY9 1-1227) MAAVLESLLREEVSVAAVVRWIARSTQGSEDNAGEAAALSSLRALRKEFVPFLLNFLREQSSRVLPQGPPTPAKTPGASAALPGRPGGPPRGSRGARSQLFPPTEAQSTAAEAPLARRGGRRRGPGPARERGGRGLEEGVSGESLPGAGGRRLRGSGSPSRPSLTLSDPPNLSNLEEFPPVGSVPPGPTGTKPSRRINPTPVSEERSLSKPKTCFTSPPISCVPSSQPSALDTSPWGLGLPPGCRSLQEEREMLRKERSKQLQQSPTPTCPTPELGSPLPSRTGSLTDEPADPARVSSRQRLELVALVYSSCIAENLVPNLFLELFFVFQLLTARRMVTAKDSDPELSPAVLDSLESPLFQSIHDCVFFAVQVLECHFQVLSNLDKGTLKLLAENERLLCFSPALQGRLRAAYEGSVAKVSLVMPPSTQAVSFQPETDNRANFSSDRAFHTFKKQRDVFYEVLREWEDHHEEPGWDFEKGLGSRIRAMMGQLSAACSHSHFVRLFQKQLLQMCQSPGGAGGTVLGEAPDVLSMLGADKLGRLWRLQERLMAPQSSGGPCPPPTFPGCQGFFRDFILSASSFQFNQHLMDSLSLKIQELNGLALPQHEPNDEDGESDVDWQGERKQFAVVLLSLRLLAKFLGFVAFLPYRGPEPPPTGELQDSILALRSQVPPVLDVRTLLQRGLQARRAVLTVPWLVEFLSFADHVVPLLEYYRDIFTLLLRLHRSLVLSQESEGKMCFLNKLLLLAVLGWLFQIPTVPEDLFFLEEGPSYAFEVDTVAPEHGLDNAPVVDQQLLYTCCPYIGELRKLLASWVSGSSGRSGGFMRKITPTTTTSLGAQPSQTSQGLQAQLAQAFFHNQPPSLRRTVEFVAERIGSNCVKHIKATLVADLVRQAESLLQEQLVTQGEEGGDPAQLLEILCSQLCPHGAQALALGREFCQRKSPGAVRALLPEETPAAVLSSAENIAVGLATEKACAWLSANITALIRREVKAAVSRTLRAQGPEPAARGERRGCSRACEHHAPLPSHLISEIKDVLSLAVGPRDPDEGVSPEHLEQLLGQLGQTLRCRQFLCPPAEQHLAKCSVELASLLVADQIPILGPPAQYRLERGQARRLLHMLLSLWKEDFQGPVPLQLLLSPRNVGLLADTRPREWDLLLFLLRELVEKGLMGRMEIEACLGSLHQAQWPGDFAEELATLSNLFLAEPHLPEPQLRACELVQPNRGTVLAQS
12 |  | binds |  |  | C15orf41 (endogenous) (protein, UniProt Q9Y2V0 1-281) MILTKAQYDEIAQCLVSVPPTRQSLRKLKQRFPSQSQATLLSIFSQEYQKHIKRTHAKHHTSEAIESYYQRYLNGVVKNGAAPVLLDLANEVDYAPSLMARLILERFLQEHEETPPSKSIINSMLRDPSQIPDGVLANQVYQCIVNDCCYGPLVDCIKHAIGHEHEVLLRDLLLEKNLSFLDEDQLRAKGYDKTPDFILQVPVAVEGHIIHWIESKASFGDECSHHAYLHDQFWSYWNRFGPGLVIYWYGFIQELDCNRERGILLKACFPTNIVTLCHSIA
13 | binds | binds | binds |  | HDAC10 (endogenous) (protein, UniProt Q969S8 1-669) MGTALVYHEDMTATRLLWDDPECEIERPERLTAALDRLRQRGLEQRCLRLSAREASEEELGLVHSPEYVSLVRETQVLGKEELQALSGQFDAIYFHPSTFHCARLAAGAGLQLVDAVLTGAVQNGLALVRPPGHHGQRAAANGFCVFNNVAIAAAHAKQKHGLHRILVVDWDVHHGQGIQYLFEDDPSVLYFSWHRYEHGRFWPFLRESDADAVGRGQGLGFTVNLPWNQVGMGNADYVAAFLHLLLPLAFEFDPELVLVSAGFDSAIGDPEGQMQATPECFAHLTQLLQVLAGGRVCAVLEGGYHLESLAESVCMTVQTLLGDPAPPLSGPMAPCQSALESIQSARAAQAPHWKSLQQQDVTAVPMSPSSHSPEGRPPPLLPGGPVCKAAASAPSSLLDQPCLCPAPSVRTAVALTTPDITLVLPPDVIQQEASALREETEAWARPHESLAREEALTALGKLLYLLDGMLDGQVNSGIAATPASAAAATLDVAVRRGLSHGAQRLLCVALGQLDRPPDLAHDGRSLWLNIRGKEAAALSMFHVSTPLPVMTGGFLSCILGLVLPLAYGFQPDLVLVALGPGHGLQGPHAALLAAMLRGLAGGRVLALLEENSTPQLAGILARVLNGEAPPSLGPSSVASPEDVQALMYLRGQLEPQWKMLQCHPHLVA
